Reference: article PMC7955167 (Structure(London, England:1993), 2021)
These are yes or no findings as the source states them, for the method shown.

T1: IRAK4 kinase domain (residues 160-460) D329A, unphosphorylated (human) (UniProt Q9NWZ3)
T1 sequence: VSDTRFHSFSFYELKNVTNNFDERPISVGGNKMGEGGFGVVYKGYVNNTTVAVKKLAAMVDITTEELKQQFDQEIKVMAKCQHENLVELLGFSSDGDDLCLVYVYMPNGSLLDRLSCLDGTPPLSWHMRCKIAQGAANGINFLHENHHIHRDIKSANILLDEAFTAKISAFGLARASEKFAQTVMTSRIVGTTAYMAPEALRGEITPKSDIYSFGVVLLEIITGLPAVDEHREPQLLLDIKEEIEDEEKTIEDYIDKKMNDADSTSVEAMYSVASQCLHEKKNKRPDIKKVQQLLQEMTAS


Key:
[1] = biological target: T1, IRAK4 kinase domain (residues 160-460) D329A, unphosphorylated (human); assay: native gel or EMSA; native PAGE co-migration; continuous 10% acrylamide gel, 375 mM Tris/HCl pH 8.8; running buffer 25 mM Tris, 192 mM glycine, pH 8.3; 1 mg/ml per protein, pre-incubated on ice for 1 h; Coomassie stain; both purified
[2] = biological target: IRAK3 pseudokinase domain (residues 145-454) L210E (human) (UniProt Q9Y616); assay: SEC; analytical gel filtration, Superdex Increase 3.2/300, 20 mM HEPES pH 7.5, 200 mM NaCl, 10% glycerol, 1 mM DTT; 25 μl loaded at 1-5 mg/ml; fractions on SDS-PAGE; monomer to dimer; both purified

binding [1] | binding [2] | Binder
no binding (tested: 1 mg/ml per protein) |  | IRAK2 pseudokinase domain (residues 192-507) (domain or fragment, UniProt O43187 192-507) AGDSLFWSEADVVQATDDFNQNRKISQGTFADVYRGHRHGKPFVFKKLRETACSSPGSIERFFQAELQICLRCCHPNVLPVLGFCAARQFHSFIYPYMANGSLQDRLQGQGGSDPLPWPQRVSICSGLLCAVEYLHGLEIIHSNVKSSNVLLDQNLTPKLAHPMAHLCPVNKRSKYTMMKTHLLRTSAAYLPEDFIRVGQLTKRVDIFSCGIVLAEVLTGIPAMDNNRSPVYLKDLLLSDIPSSTASLCSRKTGVENVMAKEICQKYLEKGAGRLPEDCAEALATAACLCLRRRNTSLQEVCGSVAAVEERLRGRE
 | no binding (tested: 1-5 mg/ml) | IRAK3 pseudokinase domain (residues 145-454) L210E (domain or fragment, UniProt Q9Y616 145-454) KGILLKSSISFQNIIEGTRNFHKDFLIGEGEIFEVYRVEIQNLTYAVKLFKQEKKMQCKKHWKRFESELEVLLLFHHPNILELAAYFTETEKFCLIYPYMRNGTLFDRLQCVGDTAPLPWHIRIGILIGISKAIHYLHNVQPCSVICGSISSANILLDDQFQPKLTDFAMAHFRSHLEHQSCTINMTSSSSKHLWYMPEEYIRQGKLSIKTDVYSFGIVIMEVLTGCRVVLDDPKHIQLRDLLRELMEKRGLDSCLSFLDKKVPPCPRNFSAKLFCLAGRCAATRAKLRPSMDEVLNTLESTQASLYFAE
